Series [1] in a line: general procedure: Fmoc solid-phase peptide synthesis; AM Resin (0.30 mmol/g); CTC Resin; HBTU/DIEA.
The nature of series [2]: general procedure: Fmoc solid-phase peptide synthesis; CTC resin; HBTU/DIEA. Particulars: whole synthesis, scale 0.5 mmol.

The results in this text go back to US12091402B2 (Avilar Therapeutics, Inc., priority 2021, dated 2024).

“3-((6S,9R,12S,15S,18S,21S,27S,30S,33S,36S,39R,42S,44aS, 46S,49aR)-30-((1H-imidazol-5-yl)methyl)-12,33-bis((1H-indol-3-yl)methyl)-42-(carboxy methyl)-46-(hex-5-ynamido)-6-((R)-1-hydroxyethyl)-18,27-diisobutyl-15-isopropyl-36-methyl-5,8,11,14,17,20,23,26,29,32,35,38,41,44,49-pentadecaoxooctatetracontahydro-1H-9,39-(methanodithiomethano)dipyrrolo[1,2-a:1′,2′-d][1,4,7,10,13,16,19,22,25,28,31,34,37,40,43]pentadecaazacyclopentatetracontin-21-yl)propanoic acid”: in series [1] (late stage modification step), the “final purity (method not given)” value is 97.8% purity and the step yield stood at 36.54% yield.
“3-[(1R,4S,7S,10S,13S,19S,22S,25S,28S,31R,34S,40R,44R,46S,49S)-44-amino-49-(carboxymethyl)-34-[(1R)-1-hydroxyethyl]-10-(1H-imidazol-5-ylmethyl)-7,28-bis(1H-indol-3-ylmethyl)-13,22-diisobutyl-25-isopropyl-4-methyl-2,5,8,11,14,17,20,23,26,29,32,35,41,47,50-pentadecaoxo-53,54-dithia-3,6,9,12,15,18,21,24,27,30,33,36,42,48,51-pentadecazatetracyclo[29.20.4.036,40.042,46]pentapentacontan-19-yl]propanoic acid”: in series [2], the crude mass was 190.0 mg, crude. For the same substance, in series [1] (oxidative folding step), the “final purity (method not given)” value turned out to be 91.06% purity and the oxidative folding yield worked out at 19.7% yield. In addition, in series [1] (whole synthesis), the “final purity (method not given)” value is listed as 95.2% purity. Moreover, the isolated yield entry in series [1] (whole synthesis, overall) is “total yield 5.0%”. The isolated mass in series [1] (whole synthesis, scale 0.5 mmol) amounted to 42.7 mg.
With “(2S,5aR,11S,14R,17S,20S,23S,26S,32S,35S,38S,41S,44R,47S,49aS)-35-((1H-imidazol-5-yl)methyl)-17,38-bis((1H-indol-3-yl)methyl)-2-amino-11-((R)-1-hydroxyethyl)-23,32-diisobutyl-20-isopropyl-26,41,47-trimethyltetratriacontahydro-5H-14,44-(methanodithiomethano)dipyrrolo[1,2-a:1′,2′-d][1,4,7,10,13,16,19,22,25,28,31,34,37,40,43]pentadecaazacyclopentatetracontine-5,10,13,16,19,22,25,28,31,34,37,40,43,46,49-pentadecaone”, in series [1] (whole synthesis), the “final purity (method not given)” value amounted to 95.9% purity and the isolated yield was determined as 19.1% yield.
Taken in the same sequence, the figures for “(S)-3-(((4R,7S,10S,13S,16S,22S,25S,28S,31S,34R)-25-((1H-imidazol-5-yl)methyl)-7,28-bis((1H-indol-3-yl)methyl)-4-(((2S,3R)-1-amino-3-hydroxy-1-oxobutan-2-yl)carbamoyl)-16-(2-carboxyethyl)-13,22-diisobutyl-10-isopropyl-31-methyl-6,9,12,15,18,21,24,27,30,33-decaoxo-1,2-dithia-5,8,11,14,17,20,23,26,29,32-decaazacyclopentatriacontan-34-yl)carbamoyl)-5,21-dioxo-8,11,14,17-tetraoxa-4,20-diazahexacos-25-yn-1-oic acid” were 95.1% purity and 14.99% yield.
Taken in the same sequence, the figures for “(S)-3-(((4R,7S,10S,13S,16S,22S,25S,28S,31S,34R)-25-((1H-imidazol-5-yl)methyl)-7,28-bis((1H-indol-3-yl)methyl)-4-(((2S,3R)-1-amino-3-hydroxy-1-oxobutan-2-yl)carbamoyl)-16-(2-carboxyethyl)-13,22-diisobutyl-10-isopropyl-31-methyl-6,9,12,15,18,21,24,27,30,33-decaoxo-1,2-dithia-5,8,11,14,17,20,23,26,29,32-decaazacyclopentatriacontan-34-yl)carbamoyl)-20-oxo-7,10,13,16-tetraoxa-4,19-diazapentacos-24-ynoic acid” were 95.2% purity and 19.13%.
